In PMC8027484 one finds binding data, which are given here for 1 molecule.

The target in the assay is T1, 3×Flag-tagged-FLVCR1 (feline leukemia virus subgroup C receptor 1) (UniProt Q9Y5Y0).
T1 sequence: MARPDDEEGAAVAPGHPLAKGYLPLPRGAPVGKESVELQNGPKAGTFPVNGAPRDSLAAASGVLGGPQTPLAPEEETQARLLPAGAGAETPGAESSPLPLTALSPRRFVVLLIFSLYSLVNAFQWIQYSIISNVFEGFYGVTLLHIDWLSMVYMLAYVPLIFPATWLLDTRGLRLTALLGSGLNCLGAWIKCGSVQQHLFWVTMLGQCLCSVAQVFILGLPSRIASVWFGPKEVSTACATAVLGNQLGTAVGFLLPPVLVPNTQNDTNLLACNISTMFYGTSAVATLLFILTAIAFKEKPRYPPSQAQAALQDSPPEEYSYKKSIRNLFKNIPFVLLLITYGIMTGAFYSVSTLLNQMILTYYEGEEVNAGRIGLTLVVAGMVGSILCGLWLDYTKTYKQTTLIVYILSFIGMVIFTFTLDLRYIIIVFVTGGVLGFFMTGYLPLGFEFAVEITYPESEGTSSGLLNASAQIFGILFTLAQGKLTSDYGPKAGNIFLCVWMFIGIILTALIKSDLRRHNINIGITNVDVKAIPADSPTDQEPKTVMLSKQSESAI
Nature of the assay: affinity purification with mass spectrometry; lysates of KYSE-150 cells stably expressing 3×Flag-tagged FLVCR1 (OE) or control (NC); anti-FLAG beads, eluted with 3×FLAG peptide, SDS-PAGE with Coomassie staining, bands digested with trypsin, LC-MS; proteins detected in the OE group.

No constants are given. Whether binding was seen depends on the method and setting. In cells and extracts the contact can be indirect. A yes stands for co-enrichment or nearness to the bait. Other partners may have been found. Tags and fused reporters may be left off the sequences shown.

B1: CEBPZ (protein, UniProt Q03701 1-1054)
chain: MAAVKEPLEFHAKRPWRPEEAVEDPDEEDEDNTSEAENGFSLEEVLRLGGTKQDYLMLATLDENEEVIDGGKKGAIDDLQQGELEAFIQNLNLAKYTKASLVEEDEPAEKENSSKKEVKIPKINNKNTAESQRTSVNKVKNKNRPEPHSDENGSTTPKVKKDKQNIFEFFERQTLLLRPGGKWYDLEYSNEYSLKPQPQDVVSKYKTLAQKLYQHEINLFKSKTNSQKGASSTWMKAIVSSGTLGDRMAAMILLIQDDAVHTLQFVETLVNLVKKKGSKQQCLMALDTFKELLITDLLPDNRKLRIFSQRPFDKLEQLSSGNKDSRDRRLILWYFEHQLKHLVAEFVQVLETLSHDTLVTTKTRALTVAHELLCNKPEEEKALLVQVVNKLGDPQNRIATKASHLLETLLCKHPNMKGVVSGEVERLLFRSNISSKAQYYAICFLNQMALSHEESELANKLITVYFCFFRTCVKKKDVESKMLSALLTGVNRAYPYSQTGDDKVREQIDTLFKVLHIVNFNTSVQALMLLFQVMNSQQTISDRYYTALYRKMLDPGLMTCSKQAMFLNLVYKSLKADIVLRRVKAFVKRLLQVTCQQMPPFICGALYLVSEILKAKPGLRSQLDDHPESDDEENFIDANDDEDMEKFTDADKETEIVKKLETEETVPETDVETKKPEVASWVHFDNLKGGKQLNKYDPFSRNPLFCGAENTSLWELKKLSVHFHPSVALFAKTILQGNYIQYSGDPLQDFTLMRFLDRFVYRNPKPHKGKENTDSVVMQPKRKHFIKDIRHLPVNSKEFLAKEESQIPVDEVFFHRYYKKVAVKEKQKRDADEESIEDVDDEEFEELIDTFEDDNCFSSGKDDMDFAGNVKKRTKGAKDNTLDEDSEGSDDELGNLDDDEVSLGSMDDEEFAEVDEDGGTFMDVLDDESESVPELEVHSKVSTKKSKRKGTDDFDFAGSFQGPRKKKRNLNDSSLFVSAEEFGHLLDENMGSKFDNIGMNAMANKDNASLKQLRWEAERDDWLHNRDAKSIIKKKKHFKKKRIKTTQKTKKQRK
On to B1, for which the binding entry is reported as “binds”.
